Assay results reported in patent US12038445B2, “Liver disease-related biomarkers and methods of use thereof” (Human Metabolomics Institute, Inc., priority 2016, dated 2024).

Experiment: Seven-BA panel in validation population (HB, fibrosis, cirrhosis, HCC)
Set-up: species or system human

SMILES	Serum BA concentration (CLD, mean)	Serum BA concentration (HB, mean)	Serum BA concentration (HCC, mean)	Serum BA concentration (Healthy, mean)	Serum BA concentration (cirrhosis C PA, mean)	Serum BA concentration (cirrhosis CP B, mean)	Serum BA concentration (cirrhosis CP C, mean)	Serum BA concentration (fibrosis S1, mean)	Serum BA concentration (fibrosis S2, mean)	Serum BA concentration (fibrosis S3, mean)
C[C@H](CCC(=O)O)[C@H]1CC[C@H]2[C@@H]3C(=O)C[C@@H]4C[C@H](O)CC[C@]4(C)[C@H]3CC[C@]12C [7-KLCA, 7-ketolithocholic acid]	11.14	6.79	14.61	2.26	16.95	17.49	9.49	2.35	3.92	5.11
C[C@H](CCC(=O)NCC(=O)O)[C@H]1CC[C@H]2[C@@H]3[C@H](O)C[C@@H]4C[C@H](O)CC[C@]4(C)[C@H]3C[C@H](O)[C@]12C [GCA, glycocholic acid]	1958.25	800.53	1996.93	72.99	3097.95	3077.65	4591.56	590.17	1956.61	775.59
CC(CCC(=O)NCC(=O)O)C1CCC2C3C(O)CC4CC(O)CCC4(C)C3CCC12C (stereo not shown) [GCDCA, glycochenodeoxycholic acid]	3177.28	1303.79	2944.03	253.17	4932.87	4450.66	10659.05	1294.84	2554.43	1691.2
C[C@H](CCC(=O)NCC(=O)O)[C@H]1CC[C@H]2[C@@H]3[C@@H](O)C[C@@H]4C[C@H](O)CC[C@]4(C)[C@H]3CC[C@]12C [GUDCA, glycoursodeoxycholic acid]	325.59	183	396.15	20.59	384.04	552.14	800.07	37.77	86.67	112.12
C[C@H](CCC(=O)NCCS(=O)(=O)O)[C@H]1CC[C@H]2[C@@H]3[C@H](O)C[C@@H]4C[C@H](O)CC[C@]4(C)[C@H]3C[C@H](O)[C@]12C [TCA, taurocholic acid]	1048.86	178.59	975.61	6.24	2204.49	1738.21	3482.81	333.19	589.34	208.23
C[C@H](CCC(=O)NCCS(=O)(=O)O)[C@H]1CC[C@H]2[C@@H]3[C@H](O)C[C@@H]4C[C@H](O)CC[C@]4(C)[C@H]3CC[C@]12C [TCDCA, taurochenodeoxycholic acid]	1095.09	302.37	1874.03	17.73	1200.95	2014.23	2648.25	100.43	167.06	123.19
C[C@H](CCC(=O)NCCS(=O)(=O)O)[C@H]1CC[C@H]2[C@@H]3[C@@H](O)C[C@@H]4C[C@H](O)CC[C@]4(C)[C@H]3CC[C@]12C [TUDCA, tauroursodeoxycholic acid]	59.35	9.86	104.31	1.44	110.24	112.31	27.14	2.07	4.69	8.98
